In PMC6959991 one finds binding data, which are given here for seven molecules.

Amino acid sequences for entries named in this document (tags omitted). Residues count along the entry.
UniProt Q6RJQ3, residues 26-338: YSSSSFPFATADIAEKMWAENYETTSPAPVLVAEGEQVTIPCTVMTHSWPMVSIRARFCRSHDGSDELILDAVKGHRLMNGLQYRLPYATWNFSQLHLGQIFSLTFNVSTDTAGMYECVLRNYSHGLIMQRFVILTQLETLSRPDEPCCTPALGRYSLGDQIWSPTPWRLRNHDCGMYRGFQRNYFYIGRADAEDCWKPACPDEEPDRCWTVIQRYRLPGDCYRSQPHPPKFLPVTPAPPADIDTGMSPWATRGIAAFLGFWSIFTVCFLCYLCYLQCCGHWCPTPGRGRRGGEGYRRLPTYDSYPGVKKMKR
UniProt Q9UBN6, residues 56-386: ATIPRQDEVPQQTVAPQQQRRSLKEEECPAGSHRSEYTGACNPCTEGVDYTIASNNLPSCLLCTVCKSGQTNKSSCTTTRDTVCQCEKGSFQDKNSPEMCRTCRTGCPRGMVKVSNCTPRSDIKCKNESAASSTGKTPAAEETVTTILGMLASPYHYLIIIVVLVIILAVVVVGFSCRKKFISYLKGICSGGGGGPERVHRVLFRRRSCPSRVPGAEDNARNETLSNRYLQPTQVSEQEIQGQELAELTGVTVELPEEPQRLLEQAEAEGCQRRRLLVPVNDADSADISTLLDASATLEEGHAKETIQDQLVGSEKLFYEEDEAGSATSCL
UniProt P19438, residues 30-455: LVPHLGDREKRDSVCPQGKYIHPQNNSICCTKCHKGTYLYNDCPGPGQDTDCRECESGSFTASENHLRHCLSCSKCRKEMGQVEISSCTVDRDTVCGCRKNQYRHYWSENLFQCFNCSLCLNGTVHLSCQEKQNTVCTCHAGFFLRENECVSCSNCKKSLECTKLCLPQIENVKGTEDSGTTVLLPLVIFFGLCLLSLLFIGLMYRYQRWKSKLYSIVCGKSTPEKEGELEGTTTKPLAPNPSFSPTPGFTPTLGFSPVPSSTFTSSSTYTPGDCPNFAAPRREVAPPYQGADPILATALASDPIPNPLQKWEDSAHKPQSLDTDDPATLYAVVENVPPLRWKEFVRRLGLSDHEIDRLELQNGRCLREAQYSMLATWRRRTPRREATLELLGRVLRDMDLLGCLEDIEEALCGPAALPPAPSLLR

No constants are given. Whether binding was seen depends on the method and setting. Binding seen in cells or lysates may run through a third protein. These calls come from enrichment with a bait or labelling near it, and not all partners need be listed.

Assay [1] has as its target HCMV glycoprotein UL141 (human cytomegalovirus, strain Merlin) (UniProt Q6RJQ3). The experiment in a line: affinity purification with mass spectrometry.
Assay [2] addresses membrane protein US18 (human cytomegalovirus, strain Merlin). The experiment in a line: affinity purification with mass spectrometry; as a1 but baits with more than one TM region, solubilised in 1% digitonin in TBS; CompPASS scored separately.
Assay [3] has as its target ORFL147C (human cytomegalovirus, strain Merlin). Briefly: affinity purification with mass spectrometry.
Assay [4] addresses ER-resident transmembrane glycoprotein US10 (human cytomegalovirus, strain Merlin). Briefly: affinity purification with mass spectrometry.
The target of assay [5] is inhibitor of apoptosis UL36 (human cytomegalovirus, strain Merlin). Briefly: affinity purification with mass spectrometry.
Assay [6] addresses HCMV UL20 (human cytomegalovirus, strain Merlin). The experiment in a line: affinity purification with mass spectrometry.

Consider TNFRSF10D (from UniProt Q9UBN6 56-386), for which the binding entry in assay [1] is listed as “binds”. As to TNFRSF1A (from UniProt P19438 30-455), in assay [1], the binding result is given as “binds”.

B1: natural killer cell cytotoxicity receptor 3 ligand 1 (protein, UniProt Q68D85 25-454)
chain: DLKVEMMAGGTQITPLNDNVTIFCNIFYSQPLNITSMGITWFWKSLTFDKEVKVFEFFGDHQEAFRPGAIVSPWRLKSGDASLRLPGIQLEEAGEYRCEVVVTPLKAQGTVQLEVVASPASRLLLDQVGMKENEDKYMCESSGFYPEAINITWEKQTQKFPHPIEISEDVITGPTIKNMDGTFNVTSCLKLNSSQEDPGTVYQCVVRHASLHTPLRSNFTLTAARHSLSETEKTDNFSIHWWPISFIGVGLVLLIVLIPWKKICNKSSSAYTPLKCILKHWNSFDTQTLKKEHLIFFCTRAWPSYQLQDGEAWPPEGSVNINTIQQLDVFCRQEGKWSEVPYVQAFFALRDNPDLCQCCRIDPALLTVTSGKSIDDNSTKSEKQTPREHSDAVPDAPILPVSPIWEPPPATTSTTPVLSSQPPTLLLPLQ
For B1, the binding result in assay [2] is “binds”.

B2: Ribonucleotide PTB-binding 1 (protein, UniProt Q8IY67 1-606)
chain: MAADVSVTHRPPLSPKSGAEVEAGDAAERRAPEEELPPLDPEEIRKRLEHTERQFRNRRKILIRGLPGDVTNQEVHDLLSDYELKYCFVDKYKGTAFVTLLNGEQAEAAINAFHQSRLRERELSVQLQPTDALLCVANLPPSLTQQQFEELVRPFGSLERCFLVYSERTGQSKGYGFAEYMKKDSAARAKSDLLGKPLGPRTLYVHWTDAGQLTPALLHSRCLCVDRLPPGFNDVDALCRALSAVHSPTFCQLACGQDGQLKGFAVLEYETAEMAEEAQQQADGLSLGGSHLRVSFCAPGPPGRSMLAALIAAQATALNRGKGLLPEPNILQLLNNLGPSASLQLLLNPLLHGSAGGKQGLLGAPPAMPLLNGPALSTALLQLALQTQGQKKPGILGDSPLGALQPGAQPANPLLGELPAGGGLPPELPPRRGKPPPLLPSVLGPAGGDREALGLGPPAAQLTPPPAPVGLRGSGLRGPLSHFYSGSPTSYFTSGLQAGLKQSHLSKAIGSSPLGSGEGLLGLSPGPNGHSHLLKVRAGGGDMQGWEAPAPQRPLTRPALPSVSRPHWAARNAALPTCCPRPSPAQKAAMWASTPRASAATTRTPT
B2: in assay [3], the binding entry is recorded as “binds”.

B3: Leucine Rich Repeat And Fibronectin Type III Domain Containing 3 (protein, UniProt Q9BTN0 17-628)
chain: SSPPQSATPSPCPRRCRCQTQSLPLSVLCPGAGLLFVPPSLDRRAAELRLADNFIASVRRRDLANMTGLLHLSLSRNTIRHVAAGAFADLRALRALHLDGNRLTSLGEGQLRGLVNLRHLILSNNQLAALAAGALDDCAETLEDLDLSYNNLEQLPWEALGRLGNVNTLGLDHNLLASVPAGAFSRLHKLARLDMTSNRLTTIPPDPLFSRLPLLARPRGSPASALVLAFGGNPLHCNCELVWLRRLAREDDLEACASPPALGGRYFWAVGEEEFVCEPPVVTHRSPPLAVPAGRPAALRCRAVGDPEPRVRWVSPQGRLLGNSSRARAFPNGTLELLVTEPGDGGIFTCIAANAAGEATAAVELTVGPPPPPQLANSTSCDPPRDGDPDALTPPSAASASAKVADTGPPTDRGVQVTEHGATAALVQWPDQRPIPGIRMYQIQYNSSADDILVYRMIPAESRSFLLTDLASGRTYDLCVLAVYEDSATGLTATRPVGCARFSTEPALRPCGAPHAPFLGGTMIIALGGVIVASVLVFIFVLLMRYKVHGGQPPGKAKIPAPVSSVCSQTNGALGPTPTPAPPAPEPAALRAHTVVQLDCEPWGPGHEPVGP
As for B3, in assay [4], the binding result is “binds”.

B4: F-box component FBOX3 (protein, UniProt Q9UK99 1-471)
chain: MAAMETETAPLTLESLPTDPLLLILSFLDYRDLINCCYVSRRLSQLSSHDPLWRRHCKKYWLISEEEKTQKNQCWKSLFIDTYSDVGRYIDHYAAIKKAWDDLKKYLEPRCPRMVLSLKEGAREEDLDAVEAQIGCKLPDDYRCSYRIHNGQKLVVPGLLGSMALSNHYRSEDLLDVDTAAGGFQQRQGLKYCLPLTFCIHTGLSQYIAVEAAEGRNKNEVFYQCPDQMARNPAAIDMFIIGATFTDWFTSYVKNVVSGGFPIIRDQIFRYVHDPECVATTGDITVSVSTSFLPELSSVHPPHYFFTYRIRIEMSKDALPEKACQLDSRYWRITNAKGDVEEVQGPGVVGEFPIISPGRVYEYTSCTTFSTTSGYMEGYYTFHFLYFKDKIFNVAIPRFHMACPTFRVSIARLEMGPDEYEEMEEEEEEEEEEDEDDDSADMDESDEDDEEERRRRVFDVPIRRRRCSRLF
B4: the binding result in assay [5] is on record as “binds”.

B5: Interferon Gamma Receptor 1 (protein, UniProt P15260 18-489)
chain: EMGTADLGPSSVPTPTNVTIESYNMNPIVYWEYQIMPQVPVFTVEVKNYGVKNSEWIDACINISHHYCNISDHVGDPSNSLWVRVKARVGQKESAYAKSEEFAVCRDGKIGPPKLDIRKEEKQIMIDIFHPSVFVNGDEQEVDYDPETTCYIRVYNVYVRMNGSEIQYKILTQKEDDCDEIQCQLAIPVSSLNSQYCVSAEGVLHVWGVTTEKSKEVCITIFNSSIKGSLWIPVVAALLLFLVLSLVFICFYIKKINPLKEKSIILPKSLISVVRSATLETKPESKYVSLITSYQPFSLEKEVVCEEPLSPATVPGMHTEDNPGKVEHTEELSSITEVVTTEENIPDVVPGSHLTPIERESSSPLSSNQSEPGSIALNSYHSRNCSESDHSRNGFDTDSSCLESHSSLSDSEFPPNNKGEIKTEGQELITVIKAPTSFGYDKPHVLVDLLVDDSGKESLIGYRPTEDSKEFS
Regarding B5, the binding result in assay [6] is “binds”.
